Experimental data reported in patent publication CN114478779A.
Residue numbers refer to the chain shown, from its start. Numbers in names are those of the source. No constants are given. Whether binding was seen depends on the method and setting. Some entries that bind do so weakly or less than the wild type. Where a sequence is shown, tags or fusion partners need not be part of it.

By UniProt entry, the sequences of proteins in these tests, tags left out. Residues count along the entry.
UniProt P51654, residues 25-559: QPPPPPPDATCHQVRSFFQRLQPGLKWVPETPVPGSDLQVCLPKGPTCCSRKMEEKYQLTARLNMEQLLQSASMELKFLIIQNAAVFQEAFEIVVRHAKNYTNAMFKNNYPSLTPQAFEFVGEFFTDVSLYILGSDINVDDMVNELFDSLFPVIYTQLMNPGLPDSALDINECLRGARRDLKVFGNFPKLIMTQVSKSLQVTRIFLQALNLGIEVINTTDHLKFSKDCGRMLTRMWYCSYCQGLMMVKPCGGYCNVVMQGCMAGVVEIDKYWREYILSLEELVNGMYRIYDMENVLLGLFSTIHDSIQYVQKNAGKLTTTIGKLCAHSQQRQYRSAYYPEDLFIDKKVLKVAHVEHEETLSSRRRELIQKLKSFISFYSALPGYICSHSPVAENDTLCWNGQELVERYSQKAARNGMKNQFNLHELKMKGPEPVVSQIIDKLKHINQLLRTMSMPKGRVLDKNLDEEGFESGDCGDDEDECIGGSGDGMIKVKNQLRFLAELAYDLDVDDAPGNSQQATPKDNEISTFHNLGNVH

B1: HuA5.2 (scFv, C末端6x His, 大肠杆菌表达) (scFv)
scFv: EVQLVESGGGLVQPGGSLRLSCAASGFTFNRYCMGWVRQAPGKGLEWVAGIDSDSGGTDYGAAVKGRATISRDNAKNSVYLQMNSLRAEDTAVYYCAKSAYGGWCGSRVAPWIDAWGQGTLVTVSSGGGGSSSELTQDPAVSVALGQTVRITCSGGGSYGWFQQKSPGQAPVTVIYDNDKRPSDIPSRFSGSASGSTASLTITGAQAEDEADYYCGSSENSYVGHVAIFGGGTKLTVLHHHHHH
B2: H-V78L (scFv, name in Kabat numbering)
scFv: B1 scFv with V79L
B3: H-A67F (scFv, name in Kabat numbering)
scFv: B1 scFv with A68F
B4: H-G35S (scFv, name in Kabat numbering)
scFv: B1 scFv with G35S

Each binder was assayed against GPC3蛋白 (实施例6 ELISA包被) (UniProt P51654) (assay: ELISA, GPC3 coated, HRP-mouse anti-His detection).

binding, binds:
B1
B2
B3
B4
